No constants are given. Whether binding was seen depends on the method and setting. Binding calls can cover weak binding; strength is not graded here. Where a sequence is shown, tags or fusion partners need not be part of it. For some assays here: In cells and extracts the contact can be indirect.
What was measured:
[1] = molecular target: thyroid hormone receptor (TRβ); test: GST pull-down of in vitro-translated 35S-labeled receptor, autoradiography
[2] = molecular target: PPARδ; test: as above
[3] = molecular target: retinoic acid receptor (RARα); test: GST pull-down of in vitro-translated 35S-labeled receptor, with all-trans retinoic acid (1 µM)
[4] = molecular target: retinoic acid receptor (RARα); test: summary of the in vitro binding assays of Example IV
[5] = molecular target: thyroid hormone receptor (TRβ); test: as above

Measured: binding

B1: PGC-1 (aa 36-797) fused to GST (protein, not shown: a dimerising Fc or GST)
chain: LSELDVNDLDTDSFLGGLKWCSDQSEIISNQYNNEPANIFEKIDEENEANLLAVLTETLDSLPVDEDGLPSFDALTDGAVTTDNEASPSSMPDGTPPPQEAEEPSLLKKLLLAPANTQLSYNECSGLSTQNHAANHTHRIRTNPAIVKTENSWSNKAKSICQQQKPQRRPCSELLKYLTTNDDPPHTKPTENRNSSRDKCASKKKSHTQPQSQHAQAKPTTLSLPLTPESPNDPKGSPFENKTIERTLSVELSGTAGLTPPTTPPHKANQDNPFKASPKLKPSCKTVVPPPTKRARYSECSGTQGSHSTKKGPEQSELYAQLSKSSGLSRGHEERKTKRPSLRLFGDHDYCQSLNSKTDILINISQELQDSRQLDFKDASCDWQGHICSSTDSGQCYLRETLEASKQVSPCSTRKQLQDQEIRAELNKHFGHPCQAVFDDKSDKTSELRDGDFSNEQFSKLPVFINSGLAMDGLFDDSEDESDKLSYPWDGTQPYSLFDVSPSCSSFNSPCRDSVSPPKSLFSQRPQRMRSRSRSFSRHRSCSRSPYSRSRSRSPGSRSSSRSCYYYESSHYRHRTHRNSPLYVRSRSRSPYSRRPRYDSYEAYEHERLKRDEYRKEHEKRESERAKQRERQKQKAIEERRVIYVGKIRPDTTRTELRDRFEVFGEIEECTVNLRDDGDSYGFITYRYTCDAFAALENGYTLRRSNETDFELYFCGRKQFFKSNYADLDTNSDDFDPASTKSKYDSLDFDSLLKEAQRSLRR
binds: all assays above
